Data published in patent publication US5331090A, “CR2 ligand compositions and methods for modulating immune cell functions” (California Institute of Biological Research, priority 1989, dated 1994).
Not every detail of the peptide structures is certain; ends, links or a residue may be inferred. No end group written: not given here.

Assays:
[1] = biological target: T1, CR2 receptor on Raji cells (Homo sapiens, UniProt P20023); experiment: Inhibition of direct binding of C3-coated Zymosan to cells (rosette count)
T1 construct: endogenous in cells; host or cells: Raji cells (human B lymphoblastoid, ATCC CCL 86)
T1 sequence (P20023 21-1033): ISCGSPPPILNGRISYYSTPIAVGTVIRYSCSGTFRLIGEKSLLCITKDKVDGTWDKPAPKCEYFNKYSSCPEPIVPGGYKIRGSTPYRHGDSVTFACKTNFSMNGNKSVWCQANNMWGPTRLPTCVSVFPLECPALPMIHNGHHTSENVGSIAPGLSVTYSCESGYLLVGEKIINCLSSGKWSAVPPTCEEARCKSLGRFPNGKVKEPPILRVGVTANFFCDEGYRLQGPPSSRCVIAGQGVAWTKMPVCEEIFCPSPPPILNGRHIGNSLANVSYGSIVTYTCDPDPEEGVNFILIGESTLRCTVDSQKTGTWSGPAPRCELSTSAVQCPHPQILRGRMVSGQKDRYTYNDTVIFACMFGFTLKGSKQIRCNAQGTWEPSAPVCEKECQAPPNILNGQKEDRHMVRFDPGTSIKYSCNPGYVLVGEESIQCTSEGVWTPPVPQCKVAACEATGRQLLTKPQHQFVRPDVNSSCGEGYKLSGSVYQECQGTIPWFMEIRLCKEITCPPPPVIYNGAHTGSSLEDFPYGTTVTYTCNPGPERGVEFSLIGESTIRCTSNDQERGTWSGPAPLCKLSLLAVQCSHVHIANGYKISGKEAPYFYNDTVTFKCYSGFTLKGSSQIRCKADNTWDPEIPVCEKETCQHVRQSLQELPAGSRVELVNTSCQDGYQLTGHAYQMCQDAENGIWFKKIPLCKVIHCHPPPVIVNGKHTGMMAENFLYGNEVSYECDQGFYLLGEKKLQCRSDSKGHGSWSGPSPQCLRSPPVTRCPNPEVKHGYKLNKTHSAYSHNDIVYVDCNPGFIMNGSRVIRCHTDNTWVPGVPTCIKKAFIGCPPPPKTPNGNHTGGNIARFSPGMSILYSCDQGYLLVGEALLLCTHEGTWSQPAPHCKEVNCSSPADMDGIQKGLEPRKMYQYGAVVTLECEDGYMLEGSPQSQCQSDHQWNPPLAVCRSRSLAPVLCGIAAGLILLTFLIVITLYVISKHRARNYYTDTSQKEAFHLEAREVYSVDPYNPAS
Protocol: Fresh blood from a healthy donor was collected and maintained at room temperature for 2 hours. Then the blood was centrifuged at 2000 x g for about 10 min and the resulting supernatant was collected. Five mg of Zymosan A particles (Sigma Chemical Co., St. Louis, Mo.) were boiled for 30 min in 20 ml of 150 mM NaCl and washed three times in phosphate-buffered saline (PBS) to form activated Zymosan. One mg of activated Zymosan particles was admixed with 0.5 ml of blood supernatant and maintained at 37 C. for 30 min, and then was washed 3 times in PBS. The washed particles were then resuspended in PBS at a concentration of 0.5 mg/ml to form a C3 -coated Zymosan composition.
Cultures containing 10^5 Raji or HSB2 cells were admixed with varying amounts (zero to 200 ug) of the polypeptides shown in Table 2 in a volume of 100 microliters (ul) of culture medium and the admixture was maintained at 37C for 30 min to allow CR2 ligand polypeptides to bind any CR2 receptor present on the cells. Thereafter, 50 ul of C3 -coated Zymosan composition was added to each culture, the cultures were subjected to centrifugation for 1 min at 600×g and then maintained at 37 C. for 30 min. […] More than 3 rosettes per cell was counted as C3 specific binding. Inhibition is expressed as the percent decrease in bound rosettes when comparing binding in the presence or absence of admixed polypeptide.

B cell lymphoma Raji = experiment: B cell proliferation assay: B cell lymphoma Raji; assay type: cell-based, Human; conditions: Raji cells
T cell lymphoma HSB2 = experiment: B cell proliferation assay: T cell lymphoma HSB2 (CR2 receptor-negative); assay type: cell-based, Human; conditions: HSB2 cells
T cell lymphoma BW5147 = experiment: B cell proliferation assay: T cell lymphoma BW5147 (CR2 receptor-negative); assay type: cell-based, Murine; conditions: BW5147 cells
B cell proliferation = B cell proliferation assay system, all assays of Table 1 taken together; assay type: cell-based; conditions: all assays used in Table 1

For LYNVEAT [LYNVEAT], the “Inhibition of direct binding of complement C3 fragments to CR2 receptor, in words” value [1] was “strong inhibition”.
In the case of NSGVEA [NSGVEA], the “Inhibition of direct binding of complement C3 fragments to CR2 receptor, in words” value [1] is reported as “significantly inhibits” and the “Inhibition of B cell proliferation as measured by the Raji cell assay, in words” value (B cell lymphoma Raji) is reported as “strongly inhibit”.
For QNSGVEALI [QNSGVEALI], the “Inhibition of CR2 receptor-negative T cell line HSB2, in words” value (T cell lymphoma HSB2) was “did not inhibit”, the “Inhibition of CR2 receptor-negative T cell line BW5147, in words” value (T cell lymphoma BW5147) was “did not inhibit” and the “Inhibition of B cell proliferation, in words” value (B cell proliferation) was “strongly inhibits”.
In the case of QNSGVEALT [QNSGVEALT], the “Inhibition of B cell proliferation as measured by the Raji cell assay, in words” value (B cell lymphoma Raji) is reported as “strongly inhibit”.
